system: not listed separately; assay: Serum biochemical quantities, wild dolphins compared to Navy dolphins; assay type: in vivo, bottlenose dolphins (Tursiops truncatus); conditions: wild (Sarasota Bay) over Navy dolphins

Row | Compound | Serum biochemical quantity ratio, Ratio (wild dolphins compared to Navy dolphins)
1 | CC(=O)NCCS(=O)(=O)O [N-acetyltaurine] | 1.05
2 | C[N+](C)(C)CC(=O)O [betaine] | 1.52
3 | O=C(O)c1c[nH]c2ccccc12 [indole-3-carboxylate] | 1.17
4 | CC(O)C(=O)O (stereo not drawn) [lactate] | 3.13
5 | O=C(O)/C=C\C(=O)O [maleate] | 1.06
6 | OC[C@@H](O)[C@@H](O)[C@@H](O)CO [ribitol] | 1.56
7 | arabitol/xylitol | 1.34

system: Neuronal iron density; assay: Serum biochemical age-group ratio in dolphins with high vs low neuronal iron density; assay type: in vivo, bottlenose dolphins (Tursiops truncatus); conditions: high neuronal iron density dolphins; 15-to-25-year old over 3-to-15-year old

Row | Compound | Serum biochemical quantity ratio, High density
8 | CC(O)C(=O)O (stereo not drawn) [lactate] | 0.62

same assay, conditions: high neuronal iron density dolphins; *3-15 years old:0-2 years old

Row | Compound | Serum biochemical quantity ratio, High density
9 | CC(=O)NCCS(=O)(=O)O [N-acetyltaurine] | 0.72
10 | C[N+](C)(C)CC(=O)O [betaine] | 0.84
11 | O=C(O)c1c[nH]c2ccccc12 [indole-3-carboxylate] | 0.86
12 | O=C(O)/C=C\C(=O)O [maleate] | 0.88
13 | OC[C@@H](O)[C@@H](O)[C@@H](O)CO [ribitol] | 0.74
14 | arabitol/xylitol | 0.67

same assay, conditions: low neuronal iron density dolphins; 15-to-25-year old over 3-to-15-year old

Row | Compound | Serum biochemical quantity ratio, Low density
15 | CC(O)C(=O)O (stereo not drawn) [lactate] | 2.02

same assay, conditions: low neuronal iron density dolphins; *3-15 years old:0-2 years old

Row | Compound | Serum biochemical quantity ratio, Low density
16 | CC(=O)NCCS(=O)(=O)O [N-acetyltaurine] | 1.25
17 | C[N+](C)(C)CC(=O)O [betaine] | 1.04
18 | O=C(O)c1c[nH]c2ccccc12 [indole-3-carboxylate] | 1.53
19 | O=C(O)/C=C\C(=O)O [maleate] | 1.74
20 | OC[C@@H](O)[C@@H](O)[C@@H](O)CO [ribitol] | 1.71
21 | arabitol/xylitol | 1.39

From US12427179B2, “Compositions and methods for diagnosis and treatment of neurodegenerative diseases” (EPITRACKER, INC., priority 2019, dated 2025)
